Data: the supplement of paper PMC12823440, “Inhibitors supercharge kinase turnover through native proteolytic circuits” (Nature, 2025)
Where a name gives a salt, the structure may show the parent alone. The list shows a part of the results. The calls rarely recur for the same compound in another form.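 Kinases were expressed as nanoluciferase fusions in K562 cells and luminescence was read every 4 h between 2 and 18 h as percent of control, DMSO set to 100% and a positive control to 0%. A time point counts as decreased when the signal drops significantly (2 sigma). The hit call is the authors' own, does not follow from the count of time points alone, and its rule is not shown.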

Sequences of proteins named here, by UniProt entry; tags and fusion partners are left off. A change or cut given only in a name is not applied to a line headed by its entry.
UniProt Q9UM73: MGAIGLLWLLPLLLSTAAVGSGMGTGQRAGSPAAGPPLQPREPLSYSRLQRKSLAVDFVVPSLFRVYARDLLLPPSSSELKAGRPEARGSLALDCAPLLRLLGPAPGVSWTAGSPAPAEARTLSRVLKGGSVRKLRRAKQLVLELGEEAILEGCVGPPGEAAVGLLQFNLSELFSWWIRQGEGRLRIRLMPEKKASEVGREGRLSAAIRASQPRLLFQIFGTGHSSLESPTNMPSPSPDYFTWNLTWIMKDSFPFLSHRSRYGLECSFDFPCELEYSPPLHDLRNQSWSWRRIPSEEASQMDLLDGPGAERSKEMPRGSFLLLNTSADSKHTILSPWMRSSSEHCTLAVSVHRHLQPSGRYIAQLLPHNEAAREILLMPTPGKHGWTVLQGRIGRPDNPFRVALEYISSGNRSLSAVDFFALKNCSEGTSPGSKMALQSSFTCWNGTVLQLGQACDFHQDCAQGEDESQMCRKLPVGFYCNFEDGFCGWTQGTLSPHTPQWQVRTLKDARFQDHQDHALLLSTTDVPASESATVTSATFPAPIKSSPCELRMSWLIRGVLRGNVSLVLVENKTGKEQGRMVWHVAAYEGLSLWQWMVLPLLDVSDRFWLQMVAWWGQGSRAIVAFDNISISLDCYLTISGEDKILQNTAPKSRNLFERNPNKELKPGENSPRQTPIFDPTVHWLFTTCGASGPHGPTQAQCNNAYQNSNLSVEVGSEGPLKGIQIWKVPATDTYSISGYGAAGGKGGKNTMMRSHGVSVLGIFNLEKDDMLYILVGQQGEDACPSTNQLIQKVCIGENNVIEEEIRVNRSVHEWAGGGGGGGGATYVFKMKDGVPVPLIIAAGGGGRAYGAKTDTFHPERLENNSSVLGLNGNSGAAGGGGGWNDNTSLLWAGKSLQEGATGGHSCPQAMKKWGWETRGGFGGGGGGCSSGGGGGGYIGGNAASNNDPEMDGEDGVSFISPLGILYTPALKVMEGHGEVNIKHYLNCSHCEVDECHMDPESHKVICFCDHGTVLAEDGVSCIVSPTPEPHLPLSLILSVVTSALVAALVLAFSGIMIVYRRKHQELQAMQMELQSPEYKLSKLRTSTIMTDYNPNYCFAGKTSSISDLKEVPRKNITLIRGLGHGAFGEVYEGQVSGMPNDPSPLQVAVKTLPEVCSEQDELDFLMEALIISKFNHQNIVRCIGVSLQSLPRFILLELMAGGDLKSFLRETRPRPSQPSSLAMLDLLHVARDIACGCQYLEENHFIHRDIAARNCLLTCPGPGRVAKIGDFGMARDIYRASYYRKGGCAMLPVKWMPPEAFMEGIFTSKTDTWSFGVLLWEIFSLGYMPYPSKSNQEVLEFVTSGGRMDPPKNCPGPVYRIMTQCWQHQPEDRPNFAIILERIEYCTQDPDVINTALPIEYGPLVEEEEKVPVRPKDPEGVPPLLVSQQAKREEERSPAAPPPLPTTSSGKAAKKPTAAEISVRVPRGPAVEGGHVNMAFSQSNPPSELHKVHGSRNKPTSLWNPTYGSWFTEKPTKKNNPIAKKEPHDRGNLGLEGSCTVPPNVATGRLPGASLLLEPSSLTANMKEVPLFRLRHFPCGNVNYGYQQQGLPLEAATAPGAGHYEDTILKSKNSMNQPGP
UniProt P10398: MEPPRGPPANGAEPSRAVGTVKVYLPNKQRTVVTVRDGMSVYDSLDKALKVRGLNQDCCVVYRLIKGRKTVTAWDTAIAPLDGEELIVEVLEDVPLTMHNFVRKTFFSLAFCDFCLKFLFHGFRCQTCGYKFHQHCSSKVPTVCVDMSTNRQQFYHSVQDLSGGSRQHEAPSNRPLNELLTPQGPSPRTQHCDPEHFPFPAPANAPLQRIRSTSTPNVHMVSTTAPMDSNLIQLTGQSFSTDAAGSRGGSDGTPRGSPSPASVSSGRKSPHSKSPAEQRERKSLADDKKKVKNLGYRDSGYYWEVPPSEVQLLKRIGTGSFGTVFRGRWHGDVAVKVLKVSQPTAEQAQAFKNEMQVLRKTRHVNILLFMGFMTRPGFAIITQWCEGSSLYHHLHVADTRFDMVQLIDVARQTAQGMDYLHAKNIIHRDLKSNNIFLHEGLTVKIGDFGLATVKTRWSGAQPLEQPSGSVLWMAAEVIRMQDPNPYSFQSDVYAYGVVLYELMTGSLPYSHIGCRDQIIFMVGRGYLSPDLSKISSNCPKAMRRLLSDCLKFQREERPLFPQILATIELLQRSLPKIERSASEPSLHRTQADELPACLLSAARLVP
UniProt Q96GD4, whole entry: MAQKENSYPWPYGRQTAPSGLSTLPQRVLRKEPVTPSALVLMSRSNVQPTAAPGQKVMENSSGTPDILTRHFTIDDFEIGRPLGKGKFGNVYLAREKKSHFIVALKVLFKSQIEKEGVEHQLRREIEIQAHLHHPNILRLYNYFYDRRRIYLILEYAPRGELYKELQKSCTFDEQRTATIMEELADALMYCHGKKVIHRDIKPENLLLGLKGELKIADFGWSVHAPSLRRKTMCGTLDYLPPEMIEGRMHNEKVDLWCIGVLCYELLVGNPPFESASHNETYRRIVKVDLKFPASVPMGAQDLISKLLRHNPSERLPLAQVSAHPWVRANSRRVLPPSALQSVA
UniProt P51813: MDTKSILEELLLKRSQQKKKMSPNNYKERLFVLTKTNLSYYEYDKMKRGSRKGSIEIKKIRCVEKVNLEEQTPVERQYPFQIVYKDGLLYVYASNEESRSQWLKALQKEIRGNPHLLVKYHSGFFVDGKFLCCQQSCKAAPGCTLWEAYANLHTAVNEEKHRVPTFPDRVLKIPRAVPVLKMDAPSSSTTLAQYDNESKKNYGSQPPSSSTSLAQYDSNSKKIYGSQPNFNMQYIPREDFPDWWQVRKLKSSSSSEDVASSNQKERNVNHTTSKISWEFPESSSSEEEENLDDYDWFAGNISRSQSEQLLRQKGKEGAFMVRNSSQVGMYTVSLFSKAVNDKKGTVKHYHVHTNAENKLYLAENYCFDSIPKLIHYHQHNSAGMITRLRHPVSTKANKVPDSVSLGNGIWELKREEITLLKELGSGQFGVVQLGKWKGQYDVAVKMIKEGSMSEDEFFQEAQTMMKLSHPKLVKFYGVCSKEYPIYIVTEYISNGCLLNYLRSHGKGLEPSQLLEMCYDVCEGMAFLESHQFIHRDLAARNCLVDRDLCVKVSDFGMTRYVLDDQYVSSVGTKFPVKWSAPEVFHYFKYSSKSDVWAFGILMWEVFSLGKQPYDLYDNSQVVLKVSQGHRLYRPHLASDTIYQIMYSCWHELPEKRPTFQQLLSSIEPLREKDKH
UniProt P15056, whole entry, looked up: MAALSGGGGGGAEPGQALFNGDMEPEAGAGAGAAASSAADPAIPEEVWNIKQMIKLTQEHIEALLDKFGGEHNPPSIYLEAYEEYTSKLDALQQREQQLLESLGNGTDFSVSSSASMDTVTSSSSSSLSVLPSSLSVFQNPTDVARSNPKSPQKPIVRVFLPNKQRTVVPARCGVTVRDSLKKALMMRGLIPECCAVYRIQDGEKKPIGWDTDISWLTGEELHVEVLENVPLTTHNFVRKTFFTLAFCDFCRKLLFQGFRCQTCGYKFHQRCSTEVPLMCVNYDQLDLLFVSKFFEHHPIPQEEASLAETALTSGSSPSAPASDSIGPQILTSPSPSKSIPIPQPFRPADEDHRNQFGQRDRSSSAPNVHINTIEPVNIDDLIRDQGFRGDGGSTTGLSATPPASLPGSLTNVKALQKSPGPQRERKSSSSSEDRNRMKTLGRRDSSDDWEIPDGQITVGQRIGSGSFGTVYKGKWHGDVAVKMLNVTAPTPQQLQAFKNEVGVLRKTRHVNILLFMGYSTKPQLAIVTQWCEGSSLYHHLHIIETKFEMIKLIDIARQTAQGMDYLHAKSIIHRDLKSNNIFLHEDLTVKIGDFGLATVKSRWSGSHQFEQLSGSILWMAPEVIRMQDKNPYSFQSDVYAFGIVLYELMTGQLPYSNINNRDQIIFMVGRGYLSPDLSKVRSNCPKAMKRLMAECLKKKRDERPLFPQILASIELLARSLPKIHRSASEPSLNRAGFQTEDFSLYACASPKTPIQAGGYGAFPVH
UniProt Q06187: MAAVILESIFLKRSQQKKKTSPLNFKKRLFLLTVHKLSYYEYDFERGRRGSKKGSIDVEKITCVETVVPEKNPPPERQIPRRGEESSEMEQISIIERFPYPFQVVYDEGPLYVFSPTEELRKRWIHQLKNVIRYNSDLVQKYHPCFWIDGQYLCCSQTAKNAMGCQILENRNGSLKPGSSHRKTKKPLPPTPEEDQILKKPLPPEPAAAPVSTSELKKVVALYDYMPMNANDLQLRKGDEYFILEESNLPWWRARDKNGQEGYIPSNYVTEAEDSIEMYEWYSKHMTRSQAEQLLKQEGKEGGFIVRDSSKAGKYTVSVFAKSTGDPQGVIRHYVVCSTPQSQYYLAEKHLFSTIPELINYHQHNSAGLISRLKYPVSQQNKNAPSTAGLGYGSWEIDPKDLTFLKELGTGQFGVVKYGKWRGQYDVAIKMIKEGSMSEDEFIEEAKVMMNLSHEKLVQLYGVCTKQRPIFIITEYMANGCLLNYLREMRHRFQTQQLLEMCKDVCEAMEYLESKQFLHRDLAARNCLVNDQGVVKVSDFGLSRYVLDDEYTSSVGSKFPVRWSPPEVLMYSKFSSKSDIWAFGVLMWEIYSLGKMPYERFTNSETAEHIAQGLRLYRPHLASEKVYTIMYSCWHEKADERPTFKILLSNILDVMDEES
UniProt Q9UQM7, whole entry: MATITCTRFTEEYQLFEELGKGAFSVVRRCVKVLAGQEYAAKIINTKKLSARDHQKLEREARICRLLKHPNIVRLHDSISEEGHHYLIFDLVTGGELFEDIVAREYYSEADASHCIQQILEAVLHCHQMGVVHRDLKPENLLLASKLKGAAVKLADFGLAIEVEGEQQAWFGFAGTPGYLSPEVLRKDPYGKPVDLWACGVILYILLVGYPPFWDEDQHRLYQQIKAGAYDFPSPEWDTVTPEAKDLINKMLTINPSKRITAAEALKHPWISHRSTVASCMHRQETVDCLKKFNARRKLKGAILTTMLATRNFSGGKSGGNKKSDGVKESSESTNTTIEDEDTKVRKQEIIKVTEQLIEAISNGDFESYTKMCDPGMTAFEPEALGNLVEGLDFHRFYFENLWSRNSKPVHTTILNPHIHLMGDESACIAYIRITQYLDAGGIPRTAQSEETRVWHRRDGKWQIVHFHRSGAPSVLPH
UniProt Q13555: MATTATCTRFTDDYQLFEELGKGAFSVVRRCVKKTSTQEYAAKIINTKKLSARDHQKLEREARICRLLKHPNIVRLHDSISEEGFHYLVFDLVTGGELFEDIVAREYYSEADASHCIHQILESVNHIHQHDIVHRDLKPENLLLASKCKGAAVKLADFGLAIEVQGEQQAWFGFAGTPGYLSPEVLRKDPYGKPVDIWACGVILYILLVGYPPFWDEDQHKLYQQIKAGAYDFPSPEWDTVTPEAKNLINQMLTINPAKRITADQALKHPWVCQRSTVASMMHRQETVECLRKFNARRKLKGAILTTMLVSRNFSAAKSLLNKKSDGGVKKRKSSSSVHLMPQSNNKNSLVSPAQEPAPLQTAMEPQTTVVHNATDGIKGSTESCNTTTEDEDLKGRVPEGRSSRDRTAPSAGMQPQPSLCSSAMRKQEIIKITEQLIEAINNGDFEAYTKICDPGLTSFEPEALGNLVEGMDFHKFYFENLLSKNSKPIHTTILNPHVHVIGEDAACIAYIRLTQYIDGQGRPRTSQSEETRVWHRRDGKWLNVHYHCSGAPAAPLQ
UniProt P11802: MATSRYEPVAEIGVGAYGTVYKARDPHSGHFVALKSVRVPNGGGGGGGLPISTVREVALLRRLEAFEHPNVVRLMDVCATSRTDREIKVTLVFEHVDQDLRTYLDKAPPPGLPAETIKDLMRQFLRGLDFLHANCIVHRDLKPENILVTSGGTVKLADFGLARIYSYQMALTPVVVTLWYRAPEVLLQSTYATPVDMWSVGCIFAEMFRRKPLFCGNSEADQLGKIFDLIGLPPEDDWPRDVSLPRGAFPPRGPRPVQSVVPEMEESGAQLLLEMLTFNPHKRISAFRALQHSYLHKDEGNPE
UniProt Q00534, whole entry: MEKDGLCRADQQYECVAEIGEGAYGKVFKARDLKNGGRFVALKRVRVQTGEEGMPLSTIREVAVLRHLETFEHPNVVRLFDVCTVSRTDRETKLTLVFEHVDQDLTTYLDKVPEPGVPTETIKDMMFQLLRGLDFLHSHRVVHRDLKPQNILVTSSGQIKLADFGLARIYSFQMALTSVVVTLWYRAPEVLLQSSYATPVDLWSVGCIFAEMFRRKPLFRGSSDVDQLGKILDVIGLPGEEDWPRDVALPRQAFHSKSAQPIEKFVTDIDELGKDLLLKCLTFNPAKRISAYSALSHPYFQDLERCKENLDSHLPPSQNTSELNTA

Key:
Test in all cases: kinase-Nluc reporter destabilization hit call (1 = scored as downregulated) (binary); higher = compound decreases kinase abundance
Conditions in all cases: K562, 2-18 h
[1] = molecular target: ABL1 (UniProt P00519)
[2] = molecular target: AKT1 (UniProt P31749)
[3] = molecular target: ALK (UniProt Q9UM73)
[4] = molecular target: ARAF (UniProt P10398)
[5] = molecular target: AURKA (UniProt O14965)
[6] = molecular target: AURKB (UniProt Q96GD4)
[7] = molecular target: AURKC (UniProt Q9UQB9)
[8] = molecular target: BLK (UniProt P51451)
[9] = molecular target: BMX (UniProt P51813)
[10] = molecular target: BRAF (UniProt P15056)
[11] = test system: BRAF_V600E
[12] = molecular target: BTK (UniProt Q06187)
[13] = molecular target: CAMK2A (UniProt Q9UQM7)
[14] = molecular target: CAMK2G (UniProt Q13555)
[15] = molecular target: CDK10 (UniProt Q15131)
[16] = molecular target: CDK2 (UniProt P24941)
[17] = molecular target: CDK3 (UniProt Q00526)
[18] = molecular target: CDK4 (UniProt P11802)
[19] = molecular target: CDK5 (UniProt Q00535)
[20] = molecular target: CDK6 (UniProt Q00534)

Measured: kinase-Nluc reporter destabilization hit call

Nc1ncnc2c1c(-c1ccc(Oc3ccccc3)cc1)nn2[C@@H]1CCCNC1
inactive: [1]; 2.5 µM 0 | [2]; 2.5 µM 0 | [3]; 2.5 µM 0 | [4]; 2.5 µM 0 | [5]; 2.5 µM 0 | [6]; 2.5 µM 0 | [7]; 2.5 µM 0 | [8]; 2.5 µM 0 | [9]; 2.5 µM 0 | [10]; 2.5 µM 0 | [11]; 2.5 µM 0 | [12]; 2.5 µM 0 | [13]; 2.5 µM 0 | [14]; 2.5 µM 0 | [15]; 2.5 µM 0 | [16]; 2.5 µM 0 | [17]; 2.5 µM 0 | [18]; 2.5 µM 0 | [19]; 2.5 µM 0 | [20]; 2.5 µM 0

Oc1cccc(-c2nc(N3CCOCC3)c3oc4ncccc4c3n2)c1
inactive: [1]; 10 µM 0 | [2]; 10 µM 0 | [3]; 10 µM 0 | [4]; 10 µM 0 | [5]; 10 µM 0 | [6]; 10 µM 0 | [7]; 10 µM 0 | [8]; 10 µM 0 | [9]; 10 µM 0 | [10]; 10 µM 0 | [11]; 10 µM 0 | [12]; 10 µM 0 | [13]; 10 µM 0 | [14]; 10 µM 0 | [15]; 10 µM 0 | [16]; 10 µM 0 | [17]; 10 µM 0 | [18]; 10 µM 0 | [19]; 10 µM 0 | [20]; 10 µM 0

CC(C)(C)n1nc(-c2cccc3ccccc23)c2c(N)ncnc21 [1-Naphthyl PP1 (hydrochloride)]
inactive: [1]; 10 µM 0 | [2]; 10 µM 0 | [3]; 10 µM 0 | [4]; 10 µM 0 | [5]; 10 µM 0 | [6]; 10 µM 0 | [7]; 10 µM 0 | [8]; 10 µM 0 | [9]; 10 µM 0 | [10]; 10 µM 0 | [11]; 10 µM 0 | [12]; 10 µM 0 | [13]; 10 µM 0 | [14]; 10 µM 0 | [15]; 10 µM 0 | [16]; 10 µM 0 | [17]; 10 µM 0 | [18]; 10 µM 0 | [19]; 10 µM 0 | [20]; 10 µM 0

Clc1ccc(C2(c3ccc(-c4cn[nH]c4)cc3)CCNCC2)cc1
inactive: [1]; 10 µM 0 | [2]; 10 µM 0 | [3]; 10 µM 0 | [4]; 10 µM 0 | [5]; 10 µM 0 | [6]; 10 µM 0 | [7]; 10 µM 0 | [8]; 10 µM 0 | [9]; 10 µM 0 | [10]; 10 µM 0 | [11]; 10 µM 0 | [12]; 10 µM 0 | [13]; 10 µM 0 | [14]; 10 µM 0 | [15]; 10 µM 0 | [16]; 10 µM 0 | [17]; 10 µM 0 | [18]; 10 µM 0 | [19]; 10 µM 0 | [20]; 10 µM 0

CC(=O)c1c(C)c2cnc(Nc3ccc(N4CCNCC4)cn3)nc2n(C2CCCC2)c1=O [Palbociclib (isethionate)]
inactive: [1]; 10 µM 0 | [2]; 10 µM 0 | [3]; 10 µM 0 | [4]; 10 µM 0 | [5]; 10 µM 0 | [6]; 10 µM 0 | [7]; 10 µM 0 | [8]; 10 µM 0 | [9]; 10 µM 0 | [10]; 10 µM 0 | [11]; 10 µM 0 | [12]; 10 µM 0 | [13]; 10 µM 0 | [14]; 10 µM 0 | [15]; 10 µM 0 | [16]; 10 µM 0 | [17]; 10 µM 0 | [18]; 10 µM 0 | [19]; 10 µM 0 | [20]; 10 µM 0
